Results are given in words; binding and its absence hold for the method and conditions named. Some entries that bind do so weakly or less than the wild type. Tags and fused reporters may be left off the sequences shown.
How the values were obtained:
Experiment in all cases: solid-phase binding assay (Europium-labelled anti-GST antibody, time-resolved fluorescence); 96-well plates coated with collagen (16.4 µg/ml) or GFOGER-peptide (5 µg/ml) overnight at 4°C, blocked with BSA-Diluent II; GST-αI domain at a fixed 400 nM added for one hour at RT in PBS + 2 mM …; some samples on rat collagen I with 10 mM EDTA in the binding step; both purified
[1] = molecular target: T1, rat tail collagen I (rat, UniProt P02454 152-1207; P02466 86-1125)
T1 construct: collagen α1(I) chain, rat; collagen α2(I) chain, rat; also called rat collagen I; source: bought: Sigma Aldrich (rat tail collagen I)

Protein sequences, listed by entry. Tags and fused reporters are not part of them. Lines headed by an entry give the natural chain unless they say otherwise; changes in a name come on top.
UniProt P02454: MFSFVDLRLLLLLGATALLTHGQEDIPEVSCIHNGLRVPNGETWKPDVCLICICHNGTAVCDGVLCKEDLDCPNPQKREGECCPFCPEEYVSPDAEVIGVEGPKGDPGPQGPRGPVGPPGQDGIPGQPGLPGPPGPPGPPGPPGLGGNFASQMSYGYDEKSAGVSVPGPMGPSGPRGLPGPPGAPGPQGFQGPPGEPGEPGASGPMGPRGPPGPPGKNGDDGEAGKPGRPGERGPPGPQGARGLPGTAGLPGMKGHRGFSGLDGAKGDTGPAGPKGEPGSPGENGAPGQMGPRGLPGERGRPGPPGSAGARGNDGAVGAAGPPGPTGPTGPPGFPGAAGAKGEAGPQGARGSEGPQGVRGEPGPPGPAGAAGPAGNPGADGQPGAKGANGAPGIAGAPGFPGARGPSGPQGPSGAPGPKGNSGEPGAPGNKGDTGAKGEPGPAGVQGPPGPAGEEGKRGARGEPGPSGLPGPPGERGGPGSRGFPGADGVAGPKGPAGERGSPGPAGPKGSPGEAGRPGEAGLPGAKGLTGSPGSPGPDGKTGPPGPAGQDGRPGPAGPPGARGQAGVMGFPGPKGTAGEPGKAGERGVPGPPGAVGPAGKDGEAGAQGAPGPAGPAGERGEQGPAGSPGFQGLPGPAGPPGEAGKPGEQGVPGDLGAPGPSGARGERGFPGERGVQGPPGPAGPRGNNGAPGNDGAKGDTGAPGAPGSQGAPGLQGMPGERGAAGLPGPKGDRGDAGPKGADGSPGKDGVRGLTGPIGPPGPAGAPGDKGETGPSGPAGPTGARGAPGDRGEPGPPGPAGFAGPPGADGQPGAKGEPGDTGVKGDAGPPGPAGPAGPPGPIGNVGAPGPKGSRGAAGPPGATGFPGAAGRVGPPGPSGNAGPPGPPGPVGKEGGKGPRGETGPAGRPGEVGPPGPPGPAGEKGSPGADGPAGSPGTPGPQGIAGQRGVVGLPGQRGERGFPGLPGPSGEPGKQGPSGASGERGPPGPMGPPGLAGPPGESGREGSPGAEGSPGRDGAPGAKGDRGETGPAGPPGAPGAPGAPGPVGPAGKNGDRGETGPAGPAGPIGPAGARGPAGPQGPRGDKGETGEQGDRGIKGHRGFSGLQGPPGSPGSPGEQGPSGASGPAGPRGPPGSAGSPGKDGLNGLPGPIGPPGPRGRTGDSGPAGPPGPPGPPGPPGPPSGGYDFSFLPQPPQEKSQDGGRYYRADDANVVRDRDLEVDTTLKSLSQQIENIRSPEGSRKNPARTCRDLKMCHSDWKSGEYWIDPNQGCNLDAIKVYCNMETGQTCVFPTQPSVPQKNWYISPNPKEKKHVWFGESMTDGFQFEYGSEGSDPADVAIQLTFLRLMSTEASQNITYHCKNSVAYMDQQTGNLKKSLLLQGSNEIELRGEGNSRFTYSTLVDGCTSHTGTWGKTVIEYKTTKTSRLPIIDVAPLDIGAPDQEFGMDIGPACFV
UniProt P20849: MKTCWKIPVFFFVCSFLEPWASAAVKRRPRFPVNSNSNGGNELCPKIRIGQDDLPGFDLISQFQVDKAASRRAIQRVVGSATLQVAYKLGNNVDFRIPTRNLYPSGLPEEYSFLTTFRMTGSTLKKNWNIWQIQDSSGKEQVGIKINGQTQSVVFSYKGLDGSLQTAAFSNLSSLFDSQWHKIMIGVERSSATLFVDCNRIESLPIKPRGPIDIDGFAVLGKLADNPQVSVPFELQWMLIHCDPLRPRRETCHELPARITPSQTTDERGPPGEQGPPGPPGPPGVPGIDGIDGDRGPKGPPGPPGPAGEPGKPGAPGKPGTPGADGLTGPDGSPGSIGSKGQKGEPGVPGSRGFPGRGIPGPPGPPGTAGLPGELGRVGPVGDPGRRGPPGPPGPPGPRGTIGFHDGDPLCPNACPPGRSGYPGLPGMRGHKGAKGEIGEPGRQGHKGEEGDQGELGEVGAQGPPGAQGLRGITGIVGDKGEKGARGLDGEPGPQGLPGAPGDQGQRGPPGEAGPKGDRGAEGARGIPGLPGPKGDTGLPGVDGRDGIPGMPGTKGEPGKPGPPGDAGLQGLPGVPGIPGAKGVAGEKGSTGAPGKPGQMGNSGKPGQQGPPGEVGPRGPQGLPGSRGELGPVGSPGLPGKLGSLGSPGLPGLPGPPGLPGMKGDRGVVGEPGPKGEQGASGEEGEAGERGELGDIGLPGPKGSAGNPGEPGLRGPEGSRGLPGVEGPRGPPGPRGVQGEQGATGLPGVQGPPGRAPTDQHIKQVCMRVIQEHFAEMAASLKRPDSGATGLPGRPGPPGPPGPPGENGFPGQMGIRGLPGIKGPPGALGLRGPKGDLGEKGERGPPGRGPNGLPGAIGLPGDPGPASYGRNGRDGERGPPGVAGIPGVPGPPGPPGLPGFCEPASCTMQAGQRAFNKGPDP
UniProt Q14055: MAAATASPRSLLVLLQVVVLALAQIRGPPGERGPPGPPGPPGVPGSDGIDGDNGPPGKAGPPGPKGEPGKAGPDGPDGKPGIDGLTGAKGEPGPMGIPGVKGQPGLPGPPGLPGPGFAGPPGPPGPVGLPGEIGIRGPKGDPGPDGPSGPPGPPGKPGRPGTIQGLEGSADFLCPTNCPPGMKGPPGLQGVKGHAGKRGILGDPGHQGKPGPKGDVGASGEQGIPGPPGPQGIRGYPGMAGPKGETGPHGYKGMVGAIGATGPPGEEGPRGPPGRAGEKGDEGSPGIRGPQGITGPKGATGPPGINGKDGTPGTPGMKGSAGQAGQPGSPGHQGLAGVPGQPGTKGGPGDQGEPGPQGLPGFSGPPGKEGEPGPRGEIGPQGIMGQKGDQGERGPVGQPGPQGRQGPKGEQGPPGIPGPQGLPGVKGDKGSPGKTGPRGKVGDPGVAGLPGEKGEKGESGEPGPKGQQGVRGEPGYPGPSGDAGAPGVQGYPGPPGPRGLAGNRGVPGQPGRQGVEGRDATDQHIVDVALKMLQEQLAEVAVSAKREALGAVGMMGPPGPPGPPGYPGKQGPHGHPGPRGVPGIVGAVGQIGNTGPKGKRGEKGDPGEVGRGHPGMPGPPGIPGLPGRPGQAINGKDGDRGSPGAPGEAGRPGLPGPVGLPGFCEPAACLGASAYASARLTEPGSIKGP
UniProt P02463: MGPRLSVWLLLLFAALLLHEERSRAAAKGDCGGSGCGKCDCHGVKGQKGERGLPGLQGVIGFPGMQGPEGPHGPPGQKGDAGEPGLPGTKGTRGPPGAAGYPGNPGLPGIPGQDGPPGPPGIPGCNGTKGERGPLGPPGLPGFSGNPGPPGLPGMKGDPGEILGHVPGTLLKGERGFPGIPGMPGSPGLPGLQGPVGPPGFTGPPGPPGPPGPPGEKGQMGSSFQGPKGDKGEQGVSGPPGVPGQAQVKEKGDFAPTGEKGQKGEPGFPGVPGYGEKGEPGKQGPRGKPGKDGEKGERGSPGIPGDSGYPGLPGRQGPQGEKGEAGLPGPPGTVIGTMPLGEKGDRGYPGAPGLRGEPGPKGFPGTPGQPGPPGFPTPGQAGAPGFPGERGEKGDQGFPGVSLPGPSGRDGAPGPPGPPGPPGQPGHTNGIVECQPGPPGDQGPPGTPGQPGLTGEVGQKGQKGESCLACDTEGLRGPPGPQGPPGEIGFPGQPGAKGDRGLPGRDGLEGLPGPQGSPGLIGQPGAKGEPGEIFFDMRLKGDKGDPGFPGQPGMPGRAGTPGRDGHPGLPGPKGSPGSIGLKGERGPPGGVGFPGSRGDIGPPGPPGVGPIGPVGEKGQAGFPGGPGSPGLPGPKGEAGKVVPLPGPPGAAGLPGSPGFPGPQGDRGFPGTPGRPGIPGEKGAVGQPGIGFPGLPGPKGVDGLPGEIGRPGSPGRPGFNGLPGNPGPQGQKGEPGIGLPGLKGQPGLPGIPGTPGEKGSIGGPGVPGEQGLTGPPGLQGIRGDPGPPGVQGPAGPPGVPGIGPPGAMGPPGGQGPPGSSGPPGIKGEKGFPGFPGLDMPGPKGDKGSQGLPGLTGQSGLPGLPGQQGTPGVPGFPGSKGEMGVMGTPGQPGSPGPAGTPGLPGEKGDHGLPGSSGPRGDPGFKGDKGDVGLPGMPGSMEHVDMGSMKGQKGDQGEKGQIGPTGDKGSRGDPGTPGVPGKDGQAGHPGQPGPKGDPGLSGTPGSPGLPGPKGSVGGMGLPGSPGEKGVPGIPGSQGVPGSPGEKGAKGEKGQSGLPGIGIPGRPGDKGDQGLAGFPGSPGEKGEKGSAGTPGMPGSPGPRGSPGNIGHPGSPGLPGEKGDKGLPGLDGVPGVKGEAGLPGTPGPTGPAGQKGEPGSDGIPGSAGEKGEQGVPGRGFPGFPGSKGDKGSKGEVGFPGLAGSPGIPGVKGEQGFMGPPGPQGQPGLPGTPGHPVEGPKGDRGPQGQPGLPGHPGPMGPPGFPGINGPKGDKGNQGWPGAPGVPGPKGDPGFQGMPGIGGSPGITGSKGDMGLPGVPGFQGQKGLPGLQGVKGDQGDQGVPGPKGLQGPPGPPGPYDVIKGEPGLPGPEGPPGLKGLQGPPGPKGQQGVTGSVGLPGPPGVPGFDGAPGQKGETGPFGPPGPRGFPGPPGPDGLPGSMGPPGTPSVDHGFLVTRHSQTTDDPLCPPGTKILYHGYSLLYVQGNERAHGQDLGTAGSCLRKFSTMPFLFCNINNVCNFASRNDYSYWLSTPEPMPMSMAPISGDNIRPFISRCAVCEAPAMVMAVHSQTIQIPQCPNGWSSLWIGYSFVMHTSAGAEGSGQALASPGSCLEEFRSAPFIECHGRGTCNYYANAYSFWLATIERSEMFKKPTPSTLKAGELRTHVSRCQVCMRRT
UniProt P08122: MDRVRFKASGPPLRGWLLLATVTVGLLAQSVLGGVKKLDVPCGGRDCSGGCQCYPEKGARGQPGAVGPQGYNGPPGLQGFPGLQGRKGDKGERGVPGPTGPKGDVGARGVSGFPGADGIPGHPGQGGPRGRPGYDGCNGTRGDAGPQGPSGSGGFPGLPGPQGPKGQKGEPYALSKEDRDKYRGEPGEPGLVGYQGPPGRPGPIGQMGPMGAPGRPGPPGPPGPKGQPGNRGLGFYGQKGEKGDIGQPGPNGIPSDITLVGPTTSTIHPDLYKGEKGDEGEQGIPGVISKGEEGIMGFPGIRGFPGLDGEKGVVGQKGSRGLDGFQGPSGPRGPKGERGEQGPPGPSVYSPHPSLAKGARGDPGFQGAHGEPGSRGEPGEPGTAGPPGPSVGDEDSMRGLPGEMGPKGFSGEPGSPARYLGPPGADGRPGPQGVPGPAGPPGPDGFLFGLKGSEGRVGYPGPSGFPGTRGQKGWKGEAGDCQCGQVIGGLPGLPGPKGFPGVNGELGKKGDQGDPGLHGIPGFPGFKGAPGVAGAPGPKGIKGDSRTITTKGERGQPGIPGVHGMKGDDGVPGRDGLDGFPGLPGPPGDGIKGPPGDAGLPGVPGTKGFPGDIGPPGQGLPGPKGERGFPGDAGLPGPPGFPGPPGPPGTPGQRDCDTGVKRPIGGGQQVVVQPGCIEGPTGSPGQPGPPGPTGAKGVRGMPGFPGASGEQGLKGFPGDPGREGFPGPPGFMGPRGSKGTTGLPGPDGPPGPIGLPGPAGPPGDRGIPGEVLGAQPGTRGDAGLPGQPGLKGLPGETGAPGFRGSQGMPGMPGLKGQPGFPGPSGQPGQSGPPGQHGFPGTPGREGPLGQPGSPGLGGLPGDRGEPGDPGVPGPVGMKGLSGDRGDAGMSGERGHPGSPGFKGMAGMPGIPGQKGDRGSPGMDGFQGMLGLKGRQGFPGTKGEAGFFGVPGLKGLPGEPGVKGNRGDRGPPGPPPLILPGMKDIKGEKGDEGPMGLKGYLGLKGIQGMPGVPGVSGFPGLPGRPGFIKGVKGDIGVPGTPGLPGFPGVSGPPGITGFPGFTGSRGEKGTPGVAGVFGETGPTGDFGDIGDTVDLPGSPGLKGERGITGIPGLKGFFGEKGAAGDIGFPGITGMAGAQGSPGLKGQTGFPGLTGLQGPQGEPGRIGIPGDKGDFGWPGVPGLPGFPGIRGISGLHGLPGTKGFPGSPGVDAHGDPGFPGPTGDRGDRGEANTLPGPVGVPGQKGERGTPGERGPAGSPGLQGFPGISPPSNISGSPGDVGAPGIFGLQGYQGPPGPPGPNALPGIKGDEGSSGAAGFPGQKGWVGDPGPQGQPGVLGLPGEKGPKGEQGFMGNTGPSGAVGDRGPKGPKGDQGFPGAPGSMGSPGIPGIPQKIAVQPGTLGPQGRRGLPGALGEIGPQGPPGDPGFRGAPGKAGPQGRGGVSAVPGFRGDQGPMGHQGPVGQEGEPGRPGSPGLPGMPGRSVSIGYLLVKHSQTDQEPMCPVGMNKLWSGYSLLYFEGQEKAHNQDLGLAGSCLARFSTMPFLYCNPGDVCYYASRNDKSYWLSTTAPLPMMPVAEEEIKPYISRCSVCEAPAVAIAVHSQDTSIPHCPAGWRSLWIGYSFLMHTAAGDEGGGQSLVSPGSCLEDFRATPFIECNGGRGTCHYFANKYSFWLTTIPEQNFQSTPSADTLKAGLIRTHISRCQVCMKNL

[2] = molecular target: recombinant human collagen IX (human) (UniProt P20849+Q14055+Q14050)
[3] = molecular target: mouse collagen IV (EHS mouse tumor) (mouse) (UniProt P02463+P08122)

binding [1]: binds
binding [2]: binds
binding [3]: binds
B1: Pma_f2 αI domain (sea lamprey integrin α subunit fragment Pma_f2), GST-fusion protein (domain or fragment, sea lamprey (Petromyzon marinus))
chain: ADFQVTSTLTPAAQRCGLFMDIVIVLDGSNSIYPWQEVQNFVINIVKKFHIGPGQSRNGGGSTRFGVRTIHWHLGIARWACEGVQDVENIYSRPFVRTASALCQSLQVVRSEAFSPLFGAREGASKVMIVVTDGESHDSEDLTEAIAACERDNITRYAIAVLGYYKRKNIDPSNFISELKAISSEPEEKHFINVADEAALNDIVGTLGERIFSLEGTV
notes: also called Pma αI domains; source: E. coli BL21 tuner (gene synthesized, in pGEX-2T), recombinant GST-fusion protein, "sufficiently pure"

Reference: paper PMC4237329, “Early Chordate Origin of the Vertebrate Integrin αI Domains” (PLoS ONE, 2014)
